In the supplement of paper PMC12889115:
This is one part of the list. Values are raw readings; no control value is given beside them.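 Primary screen: polymyxin B was added at a level permeabilizing Salmonella outer membranes while sparing inner membranes. DMSO wells, both with and without polymyxin B, established maximum growth. Plate-to-plate variation meant each plate was ranked on its own, and the lowest-OD600 compounds were selected as hits.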

System: Salmonella enterica serovar Typhimurium SL1344
Test: bacterial growth OD600 after 18 h with compound and polymyxin B; higher = more bacterial growth (less inhibition)
Details: 50 µM, Mueller-Hinton broth

SMILES	bacterial growth OD600 (polymyxin B 1 µg/mL)	bacterial growth OD600 (polymyxin B 0.75 µg/mL)
CCOC(=O)C1(CCCc2ccccc2)CCN(C(=O)Cc2cnc3ncnn3c2)CC1	0.955	
CS(=O)(=O)N1CCC(C2CCN(Cc3cccc(F)c3F)CC2)C1 (configuration not stated)		0.826
CC(C)S(=O)(=O)c1ncc(CN(C)Cc2cnn(C)c2)n1Cc1ccccc1F	0.96	
COc1ccc(C(CC(=O)NCc2cn3ccsc3n2)c2ccccc2)cc1 (configuration not stated)	0.696	
COC(=O)CCC(=O)N1CCC(C2CCN(Cc3cccc(F)c3F)CC2)C1 (configuration not stated)		0.973
Cc1ccc(OC2CCN(C(=O)C3CCC(=O)N(CCN4CCOCC4)C3)CC2)cc1 (configuration not stated)	1.17	
COCC(=O)Nc1cc(C(=O)N(C)CC2Cc3ccccc3O2)cc2nc(-c3cccnc3)n(C)c12 (configuration not stated)		0.872
c1ccc(N2CCN(C3CCCN(Cc4cccc5cccnc45)C3)CC2)cc1 (configuration not stated)		0.785
O=C(CCOc1ccccc1)N1CCCC(Nc2ccc(F)c(F)c2)C1 (configuration not stated)	0.012	
CC#CC(=O)NCC1(N(C)Cc2ccccc2)Cc2ccccc2C1	0.728	
COC1CCN(C(=O)c2cc(NC(=O)CC3CCCC3)cc3nc(C4CCCO4)n(C)c23)CC1 (configuration not stated)		0.924
COc1ccccc1CCN1CCCC(CN(C)C(=O)NCc2ccccc2)C1 (configuration not stated)	1.06	
CN(Cc1ccccc1)C(=O)c1nc2ccccn2c1CNCCc1cccnc1	0.767	
C=CCNC(=O)N1C[C@H]2OC(=O)N(CCc3ccc(OC)cc3)[C@H]2C1	0.947	
O=C(Cn1cccn1)NC1CC(=O)N(Cc2ccccc2C(F)(F)F)C1 (configuration not stated)	0.976	
CC1(COc2ccc(-c3nc(COc4ccccc4)no3)cn2)CCCNC1 (configuration not stated)	0.518	

Not a retest: an excerpt of the list.
SMILES	bacterial growth OD600 (polymyxin B 1 µg/mL)	bacterial growth OD600 (polymyxin B 0.75 µg/mL)
O=C(CCOc1ccccc1)N1CCCC(Nc2ccc(F)c(F)c2)C1 (configuration not stated)	0.012	
CC#CC(=O)NCC1(N(C)Cc2ccccc2)Cc2ccccc2C1	0.728	
COC1CCN(C(=O)c2cc(NC(=O)CC3CCCC3)cc3nc(C4CCCO4)n(C)c23)CC1 (configuration not stated)		0.924
COc1ccccc1CCN1CCCC(CN(C)C(=O)NCc2ccccc2)C1 (configuration not stated)	1.06	
CN(Cc1ccccc1)C(=O)c1nc2ccccn2c1CNCCc1cccnc1	0.767	
C=CCNC(=O)N1C[C@H]2OC(=O)N(CCc3ccc(OC)cc3)[C@H]2C1	0.947	
O=C(Cn1cccn1)NC1CC(=O)N(Cc2ccccc2C(F)(F)F)C1 (configuration not stated)	0.976	
CC1(COc2ccc(-c3nc(COc4ccccc4)no3)cn2)CCCNC1 (configuration not stated)	0.518	

Later entries

SMILES	bacterial growth OD600 (polymyxin B 1 µg/mL)	bacterial growth OD600 (polymyxin B 0.75 µg/mL)
Cc1ccc(C)c(-c2n[nH]cc2CN2CCCC(CO)(Cc3ccc(F)cc3)C2)c1 (configuration not stated)	1.11	
CC(=O)N[C@@H](C)C(=O)N1CCc2onc(-c3ccc(F)c(F)c3)c2C1		0.832
COc1cccc(OCc2nc(C(=O)NCC(C)C)co2)c1	0.895	
CCOC(=O)C1(Cc2ccccc2F)CCCN(C(=O)c2cccc(C(=O)OC)c2)C1 (configuration not stated)	0.774	
COc1cccc(CN2CCCC(NC(=O)c3ccc4[nH]ccc4c3)C2)c1 (configuration not stated)		0.69
Cc1ccc2[nH]c(C3CCN(C(=O)C4CCC(=O)N(C5CC5)C4)CC3)nc2c1 (configuration not stated)	0.924	
CC1=C(C(=O)N2CCC(CCC(=O)Nc3ccc4c(c3)OCCO4)CC2)OCCO1	1.18	
COc1ccc(CCN2C(=O)O[C@@H]3CN(c4ccnc(SC)n4)C[C@@H]32)cc1		0.816
CCN1CC(CN(C)Cc2cn(Cc3ccccc3)nc2-c2cc3ccccc3o2)CC1=O (configuration not stated)	0.009	
OCC1(Cc2ccccc2)CCCN(Cc2c[nH]nc2-c2cccc(F)c2)C1 (configuration not stated)	1.06	
COc1cc(CN2CCSCC2)ccc1OCC(O)CN(C)C1CCCCC1 (configuration not stated)	1.21	
CSCCC(=O)NC1CC(=O)N(Cc2cccc3ccccc23)C1 (configuration not stated)	0.911	
COc1ccc(CC2(CCC(=O)N[C@@H](Cc3ccccc3)C(N)=O)CCC(=O)N2)c2ccccc12 (some centres not stated)		0.971
c1cncc(CNC2CCCc3nc(-c4cccnc4)ncc32)c1 (configuration not stated)	0.925	
O=C(C1CC12CCCC2)N1CCc2[nH]nc(-c3ccc4c(c3)OCO4)c2C1 (configuration not stated)		0.001
CCCNc1ccc(C(=O)NCc2nc(CC)cs2)cn1	1.23	
